No constants are given. Whether binding was seen depends on the method and setting. Binding seen in cells or lysates may run through a third protein. Some binding calls cover weakened binding; strength is not graded here.
Columns and labels:
CB2R-L133I–Rluc8 (human) = CB2R-L133I–Rluc8 (human) (UniProt P34972); test: FRET or BRET; CB2R–Rluc8 (donor) and β-arrestin2–Venus (acceptor) co-expressed in adherent HEK 293T cells, 37°C, modified Krebs-Ringer medium pH 7.4, coelenterazine h; stimulus-induced BRET ratio change upon JWH-133 or 2-AG (10 μM, or concentration series)
CB2R-Q63R–Rluc8 (human) = CB2R-Q63R–Rluc8 (human) (UniProt P34972); test: as above
[1] = target: CB2R–Rluc8 (wild-type human CB2 cannabinoid receptor fused to Rluc8) (human) (UniProt P34972); test: as above
β2-adaptin–Venus = β2-adaptin–Venus (UniProt P63010); test: FRET or BRET; β-arrestin2–Rluc8 (donor) and β2-adaptin–Venus (acceptor) co-expressed in HEK 293T cells with CB2R; BRET followed after JWH-133 (10 µM), 37°C

Protein sequences, listed by entry. Tags and fused reporters are not part of them.
UniProt P63010: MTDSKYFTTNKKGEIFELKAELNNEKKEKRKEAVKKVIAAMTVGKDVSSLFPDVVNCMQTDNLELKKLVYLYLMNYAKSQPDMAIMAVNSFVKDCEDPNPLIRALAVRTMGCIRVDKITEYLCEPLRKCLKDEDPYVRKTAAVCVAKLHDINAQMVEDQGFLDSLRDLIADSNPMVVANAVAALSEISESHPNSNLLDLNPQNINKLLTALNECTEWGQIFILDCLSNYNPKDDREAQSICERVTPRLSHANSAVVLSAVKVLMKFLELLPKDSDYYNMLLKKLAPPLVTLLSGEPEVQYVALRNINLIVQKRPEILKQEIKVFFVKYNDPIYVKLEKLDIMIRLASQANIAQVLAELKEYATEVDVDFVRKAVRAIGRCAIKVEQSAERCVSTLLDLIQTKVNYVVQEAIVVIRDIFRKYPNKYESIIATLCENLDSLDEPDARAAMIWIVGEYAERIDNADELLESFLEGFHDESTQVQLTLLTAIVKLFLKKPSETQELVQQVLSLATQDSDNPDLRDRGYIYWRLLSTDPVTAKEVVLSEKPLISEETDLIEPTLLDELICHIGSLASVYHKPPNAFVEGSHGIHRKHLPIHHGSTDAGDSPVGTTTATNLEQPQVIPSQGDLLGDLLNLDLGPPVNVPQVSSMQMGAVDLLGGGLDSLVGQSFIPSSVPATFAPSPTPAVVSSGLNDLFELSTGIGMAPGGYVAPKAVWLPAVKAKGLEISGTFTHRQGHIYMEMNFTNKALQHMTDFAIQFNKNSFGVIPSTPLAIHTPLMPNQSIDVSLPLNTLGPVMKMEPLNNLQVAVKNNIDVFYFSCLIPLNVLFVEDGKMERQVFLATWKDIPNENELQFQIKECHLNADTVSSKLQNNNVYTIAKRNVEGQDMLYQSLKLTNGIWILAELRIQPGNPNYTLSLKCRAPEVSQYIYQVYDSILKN
UniProt P29067: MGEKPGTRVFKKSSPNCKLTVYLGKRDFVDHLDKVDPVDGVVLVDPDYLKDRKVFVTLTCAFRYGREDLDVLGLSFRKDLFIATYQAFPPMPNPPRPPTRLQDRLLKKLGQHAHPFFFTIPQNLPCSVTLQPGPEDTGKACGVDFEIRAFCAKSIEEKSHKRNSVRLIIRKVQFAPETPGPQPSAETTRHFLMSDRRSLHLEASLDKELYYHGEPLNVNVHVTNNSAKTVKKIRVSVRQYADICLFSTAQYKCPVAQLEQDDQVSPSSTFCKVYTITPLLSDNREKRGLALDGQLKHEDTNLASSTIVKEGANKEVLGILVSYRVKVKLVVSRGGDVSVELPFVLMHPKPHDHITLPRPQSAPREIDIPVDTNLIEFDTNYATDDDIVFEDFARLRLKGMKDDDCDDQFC

binding (CB2R-L133I–Rluc8 (human)) | binding (CB2R-Q63R–Rluc8 (human)) | binding [1] | binding (β2-adaptin–Venus) | Substance
binds | binds | binds | – | β-arrestin2–Venus (from UniProt P29067 1-410)
– | – | – | binds | β-arrestin2–Rluc8 (from UniProt P29067 1-410)

— publication PMC8415483
